Reference: publication PMC8970588
These are yes or no findings as the source states them, for the method shown. A result given as binding can be weak or reduced; the word gives no strength. Where a sequence is shown, tags or fusion partners need not be part of it. Values belong to the binder of their own block, whether it stands above or below them.

Biological target: Egd2 NAC domain, yeast two-hybrid fusion (S. cerevisiae)
Assay: two-hybrid; reporter strain PJ69-4A; bait fused to Gal4 DNA-binding domain, prey fused to Gal4 activation domain; growth on SC-Leu-Trp-His (HIS3) and SC-Leu-Trp-Ade (ADE2) plates, 3 days at 30°C

binding: binds
B1: full-length Btt1, yeast two-hybrid fusion (protein, UniProt P40314 1-149)
chain: MPVDQEKLAKLHKLSAANKVGGTRRKINKKGNLYNNNDKDNTKLQAELHKLHPMTIENVAEANFFKKNGKVLHFNSAVVQIAPQCNLTMIHGQPKENTLNGLYPSVASQLGSQELEYLTGLAHNLENEQTVLDQLGDRCSETKQQVMNS

binding: binds
B2: full-length Egd1, yeast two-hybrid fusion (protein, UniProt Q02642 1-157)
chain: MPIDQEKLAKLQKLSANNKVGGTRRKLNKKAGSSAGANKDDTKLQSQLAKLHAVTIDNVAEANFFKDDGKVMHFNKVGVQVAAQHNTSVFYGLPQEKNLQDLFPGIISQLGPEAIQALSQLAAQMEKHEAKAPADAEKKDEAIPELVEGQTFDADVE
